Test results as given in US20220106271A1, “2-BROMO-6-ALKOXYPHENYL-SUBSTITUTED PYRROLIN-2-ONES AND THEIR USE AS HERBICIDES” (Bayer Aktiengesellschaft, priority 2018, published 2022).
Some results were stated once for a whole list of compounds, not compound by compound. Some ranges recur; such a range may be that of the whole group of compounds.

Key:
Assay in all cases: Post-emergence herbicidal effect, greenhouse pot test
Type in all cases: in vivo
Lolium rigidum = settings: application rate of 80 g/ha
Protocol: (§1) Seeds of monocotyledonous and dicotyledonous weed and crop plants are laid out in sandy loam soil in wood-fibre pots, covered with soil and cultivated in a greenhouse under good growth conditions. 2 to 3 weeks after sowing, the test plants are treated at the one-leaf stage. The compounds of the invention, formulated in the form of wettable powders (WP) or as emulsion concentrates (EC), are then sprayed onto the green parts of the plants as aqueous suspension or emulsion at a water application rate equating to 600 to 800 L/ha with addition of 0.2% wetting agent. After the test plants have been left to stand in the greenhouse under optimal growth conditions for about 3 weeks, the action of the preparations is assessed visually in comparison to untreated controls (herbicidal action in percent (%): 100% activity=the plants have died, 0% activity=like control plants).

Alopecurus myosuroides = settings: 80 g/ha, post-emergence at one-leaf stage, assessed visually after about 3 weeks; 100% = plants have died, 0% = like control plants
Protocol: as §1

Echinochloa crus-galli = settings: 80 g/ha, post-emergence at one-leaf stage, assessed visually after about 3 weeks; 100% = plants have died, 0% = like control plants
Protocol: as §1

Avena fatua = settings: 80 g/ha, post-emergence at one-leaf stage, assessed visually after about 3 weeks; 100% = plants have died, 0% = like control plants
Protocol: as §1

Setaria viridis = settings: 80 g/ha, post-emergence at one-leaf stage, assessed visually after about 3 weeks; 100% = plants have died, 0% = like control plants
Protocol: as §1

Hordeum murinum = settings: 80 g/ha, post-emergence at one-leaf stage, assessed visually after about 3 weeks; 100% = plants have died, 0% = like control plants
Protocol: as §1

CC#Cc1cc(Br)c(C2=C(OC(=O)C(C)C)C3(CCC(OC)CC3)NC2=O)c(OC)c1 (stereo not drawn) [Example 1.4]
90-100%: Post-emergence activity against Lolium multiflorum (Table 3) (Lolium rigidum) | Post-emergence action ALOMY (herbicidal action in percent) (Alopecurus myosuroides) | Post-emergence action ECHCG (herbicidal action in percent) (Echinochloa crus-galli) | Post-emergence action AVEFA (herbicidal action in percent) (Avena fatua) | Post-emergence action SETVI (herbicidal action in percent) (Setaria viridis) | Post-emergence action HORMU (herbicidal action in percent) (Hordeum murinum)
